PubChem BioAssay AID1671195 | Yale University | 2021

Screen: 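Genes whose knockdown alters LDL uptake in liver cancer cells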 (primary screen)
Cells: human Huh7 hepatoma cells
Reagents: siRNA pool against human genes, 18 nM
Duration: about 2 to 2.5 days of knockdown, then 8 h LDL uptake
Treatment: DiI-labelled LDL at 30 µg/ml for 8 h, in lipoprotein-deficient serum medium
Read-out: 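Per-cell DiI-LDL intensity by automated imaging; well means scaled to the plate median and given as a robust z-score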
Reading the numbers: robust z-score: higher = more LDL uptake after knockdown
Call rule: 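a gene counts as active if at least two replicate z-scores exceed ±2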
The whole screen tested about 22,000 reagents; shown is a part drawn at random. About 1,510 of all reagents (6.9%) were called active. 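Active includes knockdowns raising or lowering LDL uptake; positive z-scores mean more uptake, negative mean less.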 A number with no mark means an inactive call. Reagent sequences are not shown.

With TTLL8 (tubulin tyrosine ligase like 8), what was measured?
robust z-score, replicate 1: 0.34; robust z-score, replicate 2: 0.822; robust z-score, replicate 3: -0.0329

With LYG2 (lysozyme g2), what does the deposit list?
robust z-score, replicate 1: 0.967; robust z-score, replicate 2: 0.4; robust z-score, replicate 3: 0.809

What is on record for ATXN1L (ataxin 1 like)?
robust z-score, replicate 1: -1.05; robust z-score, replicate 2: -1.02; robust z-score, replicate 3: -1

What did the screen give for NAF1 (nuclear assembly factor 1 ribonucleoprotein)?
robust z-score, replicate 1: 1.49; robust z-score, replicate 2: -0.507; robust z-score, replicate 3: 0.761

With LOC441560 (retired record), how do the results read?
robust z-score, replicate 1: 1.54; robust z-score, replicate 2: -0.369; robust z-score, replicate 3: -0.325

With CEBPB (CCAAT enhancer binding protein beta), what was measured?
robust z-score, replicate 1: -0.0932; robust z-score, replicate 2: -0.257; robust z-score, replicate 3: 0.191

How did the screen score MORC4 (MORC family CW-type zinc finger 4)?
robust z-score, replicate 1: 1.36; robust z-score, replicate 2: 0.173; robust z-score, replicate 3: 0.68

For DNAH11 (dynein axonemal heavy chain 11), how do the results read?
robust z-score, replicate 1: 0.824; robust z-score, replicate 2: 0.62; robust z-score, replicate 3: 1.56

How did the screen score RNF13 (ring finger protein 13)?
robust z-score, replicate 1: -0.569; robust z-score, replicate 2: -1.93; robust z-score, replicate 3: -0.92

With HOXB4 (homeobox B4), what does the deposit list?
robust z-score, replicate 1: -1.56; robust z-score, replicate 2: -1.51; robust z-score, replicate 3: -1.47

For POM121 (POM121 transmembrane nucleoporin), what was measured?
robust z-score, replicate 1: -1.18; robust z-score, replicate 2: 0.0849; robust z-score, replicate 3: 0.253

2 entries from above, sorted by “robust z-score, replicate 3”, low to high:
MORC4 (MORC family CW-type zinc finger 4) — robust z-score, replicate 1 = 1.36; robust z-score, replicate 2 = 0.173; robust z-score, replicate 3 = 0.68
DNAH11 (dynein axonemal heavy chain 11) — robust z-score, replicate 1 = 0.824; robust z-score, replicate 2 = 0.62; robust z-score, replicate 3 = 1.56

More reagents follow.
What is on record for MINDY3 (MINDY lysine 48 deubiquitinase 3)?
robust z-score, replicate 1: -0.155; robust z-score, replicate 2: -0.342; robust z-score, replicate 3: -0.347

What is on record for TET3 (tet methylcytosine dioxygenase 3)?
robust z-score, replicate 1: 1.31; robust z-score, replicate 2: 0.146; robust z-score, replicate 3: 0.235

Which result is listed for GPR107 (G protein-coupled receptor 107)?
robust z-score, replicate 1: 0.757; robust z-score, replicate 2: 2.08; robust z-score, replicate 3: 1.53

For LOC388641 (retired record), how do the results read?
robust z-score, replicate 1: -0.902; robust z-score, replicate 2: -0.414; robust z-score, replicate 3: -0.696

Which result is listed for RETSAT (retinol saturase)?
robust z-score, replicate 1: 0.0262; robust z-score, replicate 2: -0.738; robust z-score, replicate 3: 0.916

What is on record for ZNF302 (zinc finger protein 302)?
robust z-score, replicate 1: -0.174; robust z-score, replicate 2: -0.264; robust z-score, replicate 3: -0.0555

What is on record for SEPTIN7P9 (septin 7 pseudogene 9)?
robust z-score, replicate 1: 1.63; robust z-score, replicate 2: 1.8; robust z-score, replicate 3: 2.41

With BEND2 (BEN domain containing 2), what does the deposit list?
robust z-score, replicate 1: -1.66; robust z-score, replicate 2: -0.719; robust z-score, replicate 3: -1.08

For CHD9 (chromodomain helicase DNA binding protein 9), what does the deposit list?
robust z-score, replicate 1: 1.22; robust z-score, replicate 2: 0.966; robust z-score, replicate 3: 0.857

What did the screen give for ATP5F1E (ATP synthase F1 subunit epsilon)?
robust z-score, replicate 1: -0.696; robust z-score, replicate 2: -0.752; robust z-score, replicate 3: -0.477

For LDLRAD3 (low density lipoprotein receptor class A domain containing 3), how do the results read?
robust z-score, replicate 1: -2.2; robust z-score, replicate 2: -1.73; robust z-score, replicate 3: -1.81

With DACT1 (dishevelled binding antagonist of beta catenin 1), what was measured?
robust z-score, replicate 1: -0.327; robust z-score, replicate 2: -0.574; robust z-score, replicate 3: 0.509

With C1orf94 (chromosome 1 open reading frame 94), what does the deposit list?
robust z-score, replicate 1: 0.239; robust z-score, replicate 2: -0.067; robust z-score, replicate 3: 0.182
